Cleaved PARP in drug-treated melanoma cells

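Human melanoma cell lines in 1,536-well plates were treated with two drugs together for 72 h, then fixed, stained and imaged. Each value is the cleaved-PARP-positive fraction of nuclei relative to DMSO-treated wells, in %, so that 100 equals the control and higher values mean more apoptosis. Concentrations were fixed for each drug; these are the higher of two levels. These are primary screening values without error estimates. Basal and induced levels differ widely between cell lines.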
This is part of the screen, not chosen by result.
An entry leaves out what has no value listed here.
A dash means that no value is listed here.

First drug in all entries: vincristine, 0.5 nM, CC[C@]1(O)C[C@H]2CN(CCc3c([nH]c4ccccc34)[C@@](C(=O)OC)(c3cc4c(cc3OC)N(C=O)[C@H]3[C@@](O)(C(=O)OC)[C@H](OC(C)=O)[C@]5(CC)C=CCN6CC[C@]43[C@@H]65)C2)C1

Second drug	COLO 792	LB2518-MEL	SK-MEL-28	IPC-298	WM1716	C32	A2058	SK-MEL-30	SK-MEL-2	MeWo	WM3619	G-361	MZ2-MEL	UACC-257	WM451Lu
COc1cc(Nc2ncc(F)c(Nc3ccc4c(n3)NC(=O)C(C)(C)O4)n2)cc(OC)c1OC at 2000 nM	607	233	543	136	3150	1210	1700	891	1600	453	501	1050	199	470	669
C/C(O)=C(\C#N)C(=O)Nc1cc(Br)ccc1Br at 10000 nM	69.6	500	307	309	692	132	2310	360	1980	548	198	234	744	184	1790
CS(=O)(=O)CCNCc1ccc(-c2ccc3ncnc(Nc4ccc(OCc5cccc(F)c5)c(Cl)c4)c3c2)o1 at 4000 nM	902	390	441	876	744	1090	996	797	1410	549	263	1520	294	231	218
Cc1nc(Nc2ncc(C(=O)Nc3c(C)cccc3Cl)s2)cc(N2CCN(CCO)CC2)n1 at 20 nM	222	177	201	290	459	1840	1190	298	190	158	170	122	283	48.8	138
O=C(O)c1ccc(-c2c[nH]c3ncc(-c4ccccc4)cc23)cc1C1CCCC1 at 800 nM	62.8	308	1010	67.7	178	59.0	183	206	114	154	110	314	237	384	503
CCCCCCCCCCCCCCCCCCOP(=O)([O-])OC1CC[N+](C)(C)CC1 at 2000 nM	35.6	69.7	87.9	44.6	19.5	64.5	155	216	132	157	156	62.0	130	34.5	380
Cc1cn(-c2cc(NC(=O)c3ccc(C)c(Nc4nccc(-c5cccnc5)n4)c3)cc(C(F)(F)F)c2)cn1 at 1000 nM	112	118	208	92.7	150	44.0	167	271	123	68.5	114	243	110	122	390
NC(=O)c1ccc(N(C(N)=O)c2c(F)cccc2F)nc1-c1ccc(F)cc1F at 2000 nM	93.0	63.4	123	46.0	180	95.5	220	171	61.0	81.7	88.3	108	87.9	45.3	301
COc1cc2ncnc(Nc3ccc(Oc4ccccc4)cc3)c2cc1OC at 10000 nM	67.7	124	170	178	284	106	305	390	122	156	188	218	194	64.1	2890
CNC(=O)c1cc(Oc2ccc(NC(=O)Nc3ccc(Cl)c(C(F)(F)F)c3)cc2)ccn1 at 2000 nM	71.0	58.5	323	84.0	221	350	1780	197	1760	217	186	163	793	112	166
C[C@@H]1CCN(C(=O)CC#N)C[C@@H]1N(C)c1ncnc2[nH]ccc12 at 5000 nM	139	111	278	167	866	369	1200	438	272	427	208	129	361	77.0	555
CS(=O)(=O)c1ccc(C(=O)Nc2ccc(Cl)c(-c3ccccn3)c2)c(Cl)c1 at 5000 nM	78.0	77.2	112	146	825	150	347	318	241	161	196	142	259	86.0	283
Nc1cccc2c1CN(C1CCC(=O)NC1=O)C2=O (stereo not drawn) at 5000 nM	94.9	-	103	125	663	290	346	478	115	141	157	79.8	-	27.8	76.0
C=CCNC1=C2C[C@@H](C)C[C@H](OC)[C@H](O)[C@@H](C)/C=C(\C)[C@H](OC(N)=O)[C@@H](OC)/C=C\C=C(/C)C(=O)NC(=CC1=O)C2=O at 10 nM	122	163	106	227	139	260	344	140	26.7	145	225	149	85.1	38.0	2020
Cn1cnc2c(F)c(Nc3ccc(Br)cc3Cl)c(C(=O)NOCCO)cc21 at 75 nM	41.6	256	114	85.1	70.8	132	122	127	453	68.7	165	159	238	62.8	283
NCC(=O)Nc1ccc(-n2nc(C(F)(F)F)cc2-c2ccc3c(ccc4ccccc43)c2)cc1 at 5000 nM	234	52.8	407	113	74.6	165	54.9	2190	617	107	120	242	186	95.5	455
C[C@@H](Oc1cc(-c2cnn(C3CCNCC3)c2)cnc1N)c1c(Cl)ccc(F)c1Cl at 1000 nM	73.0	-	64.7	99.4	64.7	229	117	198	165	76.9	89.8	90.9	-	88.4	282
O=S(=O)(c1ccccc1)N(CC(F)(F)F)c1ccc(C(O)(C(F)(F)F)C(F)(F)F)cc1 at 7000 nM	30.6	131	50.2	29.6	267	115	2690	327	262	193	149	121	244	48.6	1040
N#Cc1c(O)c2c(-c3ccc(-c4ccccc4O)cc3)csc2[nH]c1=O at 10000 nM	114	289	560	211	5250	99.8	2760	438	2020	331	286	98.6	450	175	755
C[C@]12O[C@H](C[C@]1(O)CO)n1c3ccccc3c3c4c(c5c6ccccc6n2c5c31)CNC4=O at 20 nM	215	68.8	305	46.1	450	195	220	356	176	90.1	161	150	189	155	394
CN(c1ncccc1CNc1nc(Nc2ccc3c(c2)CC(=O)N3)ncc1C(F)(F)F)S(C)(=O)=O at 400 nM	143	91.4	45.5	48.1	417	891	382	417	201	86.8	113	125	273	85.9	384
CC(C)C[C@H](NC(=O)[C@H](Cc1ccccc1)NC(=O)c1cnccn1)B(O)O at 5 nM	489	4280	932	4000	15800	1380	1880	1100	269	2070	3210	11100	15000	36.8	660
O=c1cc(-c2cccc3c2Sc2ccccc2S3)oc(N2CCOCC2)c1 at 5000 nM	90.0	206	103	92.4	872	127	3470	360	313	406	221	244	260	52.0	3600
Nc1nc(F)nc2c1ncn2[C@@H]1O[C@H](CO)[C@@H](O)[C@@H]1O at 1000 nM	136	65.9	396	179	262	219	214	2500	1080	156	110	154	155	5540	497
Oc1nc(-c2ccc(C(F)(F)F)cc2)nc2c1CSCC2 at 10000 nM	119	177	105	84.8	321	83.4	945	284	164	312	152	121	98.7	24.0	1750

3 of the entries, repeated:

{"second drug": "COc1cc(Nc2ncc(F)c(Nc3ccc4c(n3)NC(=O)C(C)(C)O4)n2)cc(OC)c1OC at 2000 nM", "COLO 792": 607, "LB2518-MEL": 233, "SK-MEL-28": 543, "IPC-298": 136, "WM1716": 3150, "C32": 1210, "A2058": 1700, "SK-MEL-30": 891, "SK-MEL-2": 1600, "MeWo": 453, "WM3619": 501, "G-361": 1050, "MZ2-MEL": 199, "UACC-257": 470, "WM451Lu": 669}
{"second drug": "O=c1cc(-c2cccc3c2Sc2ccccc2S3)oc(N2CCOCC2)c1 at 5000 nM", "COLO 792": 90.0, "LB2518-MEL": 206, "SK-MEL-28": 103, "IPC-298": 92.4, "WM1716": 872, "C32": 127, "A2058": 3470, "SK-MEL-30": 360, "SK-MEL-2": 313, "MeWo": 406, "WM3619": 221, "G-361": 244, "MZ2-MEL": 260, "UACC-257": 52.0, "WM451Lu": 3600}
{"second drug": "Cc1cn(-c2cc(NC(=O)c3ccc(C)c(Nc4nccc(-c5cccnc5)n4)c3)cc(C(F)(F)F)c2)cn1 at 1000 nM", "COLO 792": 112, "LB2518-MEL": 118, "SK-MEL-28": 208, "IPC-298": 92.7, "WM1716": 150, "C32": 44.0, "A2058": 167, "SK-MEL-30": 271, "SK-MEL-2": 123, "MeWo": 68.5, "WM3619": 114, "G-361": 243, "MZ2-MEL": 110, "UACC-257": 122, "WM451Lu": 390}

Data from the primary screen of doi:10.1371/journal.pone.0140310, rounded.